The list shows a part of the results.
How the values were obtained:
Test in all cases: log2 fold change, soluble protein after heating vs DMSO (PISA); higher = thermal stabilisation; K562 cells, 10 uM, 30 min; active = over 0.2 and 3.5 SD of the protein, either way, in both replicates (recomputed)
erlotinib = compound: C#Cc1cccc(Nc2ncnc3cc(OCCOC)c(OCCOC)cc23)c1 [erlotinib]
Method in brief: (§1)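 For each measurement, 10 μM compound was applied for 30 min to K562 cells at 2×10^6 cells/mL. Aliquots were heated for 3 min across 48°C-58°C, pooled, and extracted in PBS with 0.5% NP-40 at 4°C; the supernatant after 21,000xg for 90 min was soluble protein. This was quantified by TMTpro 16plex LC-MS/MS with channel sums equalised, and thermal stability was reported relative to control samples from duplicates, on a log2 fold-change scale.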

Amino acid sequences for entries named in this document (tags omitted). A change or cut given only in a name is not applied to a line headed by its entry.
UniProt Q12797: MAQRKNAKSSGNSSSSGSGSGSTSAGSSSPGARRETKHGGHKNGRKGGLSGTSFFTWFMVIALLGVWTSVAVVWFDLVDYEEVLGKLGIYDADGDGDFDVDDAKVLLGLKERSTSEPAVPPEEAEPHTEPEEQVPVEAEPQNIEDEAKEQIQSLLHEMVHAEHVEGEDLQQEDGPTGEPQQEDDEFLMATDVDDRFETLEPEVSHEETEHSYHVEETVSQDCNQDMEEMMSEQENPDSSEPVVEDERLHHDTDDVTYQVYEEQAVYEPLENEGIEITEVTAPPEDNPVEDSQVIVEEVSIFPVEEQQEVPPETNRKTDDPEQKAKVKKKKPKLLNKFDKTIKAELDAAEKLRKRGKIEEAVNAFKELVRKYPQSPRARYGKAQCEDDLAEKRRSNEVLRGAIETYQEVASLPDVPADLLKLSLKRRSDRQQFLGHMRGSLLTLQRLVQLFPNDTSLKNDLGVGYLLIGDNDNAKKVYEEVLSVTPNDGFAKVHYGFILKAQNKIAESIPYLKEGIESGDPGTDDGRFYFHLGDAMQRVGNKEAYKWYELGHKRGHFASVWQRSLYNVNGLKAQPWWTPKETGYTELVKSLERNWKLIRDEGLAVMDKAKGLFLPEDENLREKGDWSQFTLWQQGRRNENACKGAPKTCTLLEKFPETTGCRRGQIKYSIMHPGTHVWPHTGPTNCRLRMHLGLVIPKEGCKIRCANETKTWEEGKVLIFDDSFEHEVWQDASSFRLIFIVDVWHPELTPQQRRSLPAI
UniProt P08243: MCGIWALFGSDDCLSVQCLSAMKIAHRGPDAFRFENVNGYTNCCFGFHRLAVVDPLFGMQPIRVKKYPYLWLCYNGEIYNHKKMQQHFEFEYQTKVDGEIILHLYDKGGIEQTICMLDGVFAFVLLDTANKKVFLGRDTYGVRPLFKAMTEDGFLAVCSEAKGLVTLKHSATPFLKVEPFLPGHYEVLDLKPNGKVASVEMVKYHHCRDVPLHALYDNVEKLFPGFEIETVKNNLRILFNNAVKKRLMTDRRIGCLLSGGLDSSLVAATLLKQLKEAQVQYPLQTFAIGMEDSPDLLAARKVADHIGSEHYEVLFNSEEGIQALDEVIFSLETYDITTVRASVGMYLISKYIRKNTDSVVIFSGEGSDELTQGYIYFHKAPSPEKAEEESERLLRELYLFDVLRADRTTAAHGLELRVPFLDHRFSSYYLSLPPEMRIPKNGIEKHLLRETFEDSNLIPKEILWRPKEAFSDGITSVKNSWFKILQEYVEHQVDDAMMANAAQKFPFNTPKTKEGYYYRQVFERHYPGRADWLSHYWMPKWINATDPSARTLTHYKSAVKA
UniProt Q13315: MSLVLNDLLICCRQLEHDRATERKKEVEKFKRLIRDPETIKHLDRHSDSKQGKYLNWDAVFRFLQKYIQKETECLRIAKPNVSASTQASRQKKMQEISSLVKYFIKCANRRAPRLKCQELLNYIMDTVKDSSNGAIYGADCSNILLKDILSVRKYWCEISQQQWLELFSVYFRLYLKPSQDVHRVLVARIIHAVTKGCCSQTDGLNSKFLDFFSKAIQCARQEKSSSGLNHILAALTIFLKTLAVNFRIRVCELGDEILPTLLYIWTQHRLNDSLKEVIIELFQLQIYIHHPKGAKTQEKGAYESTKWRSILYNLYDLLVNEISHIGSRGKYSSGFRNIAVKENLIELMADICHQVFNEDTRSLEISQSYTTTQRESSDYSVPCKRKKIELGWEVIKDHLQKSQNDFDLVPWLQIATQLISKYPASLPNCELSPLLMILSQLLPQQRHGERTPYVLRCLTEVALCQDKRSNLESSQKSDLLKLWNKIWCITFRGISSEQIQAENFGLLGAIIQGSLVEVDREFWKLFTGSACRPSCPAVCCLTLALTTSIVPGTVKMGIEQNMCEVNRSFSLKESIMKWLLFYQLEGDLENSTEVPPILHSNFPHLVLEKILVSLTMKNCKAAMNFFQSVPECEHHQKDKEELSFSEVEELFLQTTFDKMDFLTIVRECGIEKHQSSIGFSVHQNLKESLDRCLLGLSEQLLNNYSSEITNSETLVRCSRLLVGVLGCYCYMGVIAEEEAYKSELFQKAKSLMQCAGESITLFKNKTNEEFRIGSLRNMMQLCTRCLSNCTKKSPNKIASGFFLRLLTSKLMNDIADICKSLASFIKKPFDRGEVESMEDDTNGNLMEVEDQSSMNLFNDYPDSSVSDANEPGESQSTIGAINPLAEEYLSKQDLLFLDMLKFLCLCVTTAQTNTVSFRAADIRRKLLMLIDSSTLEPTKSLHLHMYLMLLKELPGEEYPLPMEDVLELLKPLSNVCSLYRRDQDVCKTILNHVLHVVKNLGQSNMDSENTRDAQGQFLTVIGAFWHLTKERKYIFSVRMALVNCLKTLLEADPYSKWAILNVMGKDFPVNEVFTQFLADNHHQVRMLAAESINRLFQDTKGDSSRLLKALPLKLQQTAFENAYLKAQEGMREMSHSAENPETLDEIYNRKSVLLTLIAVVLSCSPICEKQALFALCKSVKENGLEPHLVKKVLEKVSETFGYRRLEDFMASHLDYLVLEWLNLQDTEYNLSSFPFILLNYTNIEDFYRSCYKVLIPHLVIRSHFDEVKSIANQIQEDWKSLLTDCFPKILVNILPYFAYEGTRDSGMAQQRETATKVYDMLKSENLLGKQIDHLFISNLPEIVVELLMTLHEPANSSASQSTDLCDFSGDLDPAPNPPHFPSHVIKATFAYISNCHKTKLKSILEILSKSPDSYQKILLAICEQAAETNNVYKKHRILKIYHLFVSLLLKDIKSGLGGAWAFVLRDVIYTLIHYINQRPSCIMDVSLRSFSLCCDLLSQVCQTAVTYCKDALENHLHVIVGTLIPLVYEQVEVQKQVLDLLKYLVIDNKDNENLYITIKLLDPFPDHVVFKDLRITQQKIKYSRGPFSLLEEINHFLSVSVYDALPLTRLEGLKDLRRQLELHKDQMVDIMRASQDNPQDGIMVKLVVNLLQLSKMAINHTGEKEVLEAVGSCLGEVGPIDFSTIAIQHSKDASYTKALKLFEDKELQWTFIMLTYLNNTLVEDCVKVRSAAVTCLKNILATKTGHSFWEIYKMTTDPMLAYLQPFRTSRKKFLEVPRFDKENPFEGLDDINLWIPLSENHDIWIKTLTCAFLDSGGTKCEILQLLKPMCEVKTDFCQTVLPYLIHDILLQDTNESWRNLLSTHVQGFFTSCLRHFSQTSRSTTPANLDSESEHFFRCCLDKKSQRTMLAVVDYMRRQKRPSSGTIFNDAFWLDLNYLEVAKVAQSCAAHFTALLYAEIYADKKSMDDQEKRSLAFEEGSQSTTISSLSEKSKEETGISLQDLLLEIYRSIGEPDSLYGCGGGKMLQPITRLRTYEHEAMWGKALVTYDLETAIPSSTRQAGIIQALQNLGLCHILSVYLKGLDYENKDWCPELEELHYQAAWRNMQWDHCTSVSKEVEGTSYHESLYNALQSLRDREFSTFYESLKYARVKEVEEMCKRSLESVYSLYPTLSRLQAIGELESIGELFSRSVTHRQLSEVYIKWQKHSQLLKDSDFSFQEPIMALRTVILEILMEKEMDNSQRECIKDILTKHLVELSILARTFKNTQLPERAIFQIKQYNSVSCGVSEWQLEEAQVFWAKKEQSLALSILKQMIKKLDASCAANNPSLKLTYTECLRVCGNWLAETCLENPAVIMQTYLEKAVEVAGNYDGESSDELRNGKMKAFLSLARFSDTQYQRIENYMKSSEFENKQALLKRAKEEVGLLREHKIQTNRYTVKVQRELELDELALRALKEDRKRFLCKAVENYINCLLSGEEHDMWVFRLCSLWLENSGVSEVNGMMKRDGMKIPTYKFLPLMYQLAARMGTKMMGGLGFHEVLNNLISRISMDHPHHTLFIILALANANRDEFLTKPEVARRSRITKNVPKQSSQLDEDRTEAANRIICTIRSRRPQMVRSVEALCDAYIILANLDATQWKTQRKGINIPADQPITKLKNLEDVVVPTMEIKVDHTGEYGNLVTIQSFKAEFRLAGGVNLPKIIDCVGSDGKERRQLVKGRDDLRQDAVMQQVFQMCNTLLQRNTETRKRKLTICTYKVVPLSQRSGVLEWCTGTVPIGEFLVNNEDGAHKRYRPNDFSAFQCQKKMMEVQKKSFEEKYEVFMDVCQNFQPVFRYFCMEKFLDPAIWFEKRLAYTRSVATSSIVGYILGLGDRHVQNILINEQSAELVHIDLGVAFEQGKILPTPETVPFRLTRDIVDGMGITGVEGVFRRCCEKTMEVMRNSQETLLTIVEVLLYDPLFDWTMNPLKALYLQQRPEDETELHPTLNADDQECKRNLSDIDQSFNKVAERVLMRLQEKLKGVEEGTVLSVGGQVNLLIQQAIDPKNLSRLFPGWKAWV
UniProt Q8NB49: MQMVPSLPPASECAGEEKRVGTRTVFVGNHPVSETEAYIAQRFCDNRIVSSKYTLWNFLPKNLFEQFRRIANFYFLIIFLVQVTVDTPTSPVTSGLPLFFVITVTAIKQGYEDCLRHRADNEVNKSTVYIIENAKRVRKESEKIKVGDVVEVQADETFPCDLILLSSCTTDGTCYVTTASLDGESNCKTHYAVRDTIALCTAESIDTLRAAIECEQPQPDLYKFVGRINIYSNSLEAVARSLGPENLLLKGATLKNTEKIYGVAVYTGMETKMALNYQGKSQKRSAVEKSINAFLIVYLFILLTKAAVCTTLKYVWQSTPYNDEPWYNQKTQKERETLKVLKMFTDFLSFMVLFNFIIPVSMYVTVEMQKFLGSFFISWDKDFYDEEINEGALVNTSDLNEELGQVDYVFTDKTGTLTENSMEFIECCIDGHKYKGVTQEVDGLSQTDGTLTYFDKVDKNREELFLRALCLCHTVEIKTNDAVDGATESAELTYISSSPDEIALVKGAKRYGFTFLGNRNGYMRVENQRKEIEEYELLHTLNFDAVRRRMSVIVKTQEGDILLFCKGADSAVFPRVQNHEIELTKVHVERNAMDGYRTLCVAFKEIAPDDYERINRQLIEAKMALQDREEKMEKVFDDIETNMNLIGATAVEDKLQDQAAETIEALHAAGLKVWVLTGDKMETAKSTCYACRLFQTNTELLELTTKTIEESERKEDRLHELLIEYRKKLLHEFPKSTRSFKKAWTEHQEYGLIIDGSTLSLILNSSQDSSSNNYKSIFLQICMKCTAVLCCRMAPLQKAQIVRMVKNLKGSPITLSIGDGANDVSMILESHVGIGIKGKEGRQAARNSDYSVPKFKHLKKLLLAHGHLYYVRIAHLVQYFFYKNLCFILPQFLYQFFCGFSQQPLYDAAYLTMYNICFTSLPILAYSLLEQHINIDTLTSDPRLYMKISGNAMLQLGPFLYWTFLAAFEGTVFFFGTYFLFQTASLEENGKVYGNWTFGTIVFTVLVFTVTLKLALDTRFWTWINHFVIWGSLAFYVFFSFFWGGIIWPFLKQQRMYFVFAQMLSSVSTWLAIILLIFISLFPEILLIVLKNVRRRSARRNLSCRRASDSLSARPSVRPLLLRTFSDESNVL
UniProt Q13733, whole entry, looked up: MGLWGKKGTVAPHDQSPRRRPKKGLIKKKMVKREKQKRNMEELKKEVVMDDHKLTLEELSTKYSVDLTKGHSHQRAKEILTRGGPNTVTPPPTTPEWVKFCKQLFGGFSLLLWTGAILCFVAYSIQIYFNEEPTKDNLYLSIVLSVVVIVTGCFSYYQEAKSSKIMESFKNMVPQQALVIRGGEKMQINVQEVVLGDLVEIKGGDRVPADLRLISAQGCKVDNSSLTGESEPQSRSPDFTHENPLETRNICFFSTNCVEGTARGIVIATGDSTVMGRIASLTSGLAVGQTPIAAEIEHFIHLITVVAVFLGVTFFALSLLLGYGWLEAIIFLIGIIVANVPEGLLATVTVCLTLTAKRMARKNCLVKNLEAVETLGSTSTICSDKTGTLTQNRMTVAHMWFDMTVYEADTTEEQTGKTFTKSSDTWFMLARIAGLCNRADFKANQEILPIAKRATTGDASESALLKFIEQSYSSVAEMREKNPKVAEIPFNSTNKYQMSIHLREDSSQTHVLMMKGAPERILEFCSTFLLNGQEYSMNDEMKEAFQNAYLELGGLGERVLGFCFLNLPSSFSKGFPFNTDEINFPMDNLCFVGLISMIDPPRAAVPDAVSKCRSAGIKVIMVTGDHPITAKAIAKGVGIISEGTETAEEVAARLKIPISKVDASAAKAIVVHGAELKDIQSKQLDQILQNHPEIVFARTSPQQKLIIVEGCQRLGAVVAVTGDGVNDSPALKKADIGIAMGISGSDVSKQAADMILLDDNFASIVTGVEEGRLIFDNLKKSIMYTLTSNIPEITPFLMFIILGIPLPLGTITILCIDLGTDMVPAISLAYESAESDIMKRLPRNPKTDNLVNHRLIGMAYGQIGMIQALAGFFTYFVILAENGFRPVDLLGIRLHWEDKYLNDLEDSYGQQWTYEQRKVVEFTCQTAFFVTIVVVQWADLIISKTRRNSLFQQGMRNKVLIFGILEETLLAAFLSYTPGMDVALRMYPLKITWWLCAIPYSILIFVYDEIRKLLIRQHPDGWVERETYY
UniProt P56381: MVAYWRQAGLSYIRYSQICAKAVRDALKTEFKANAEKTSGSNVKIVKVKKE

[1] = compound: C/C(=N\NC(=O)C1=CC(=CC=C1)S(=O)(=O)N2CCOCC2)/C3=C(C=CC(=C3)Cl)O
Method in brief: as §1

[2] = compound: C1=CC(=C(C=C1Cl)C2=NC3=NC=CN=C3C(=N2)NC4=CC=NC=C4)F
Method in brief: as §1

[3] = compound: C1=CC(=CC=C1C2=NC3=C(N2)C=C(C=C3)C(=O)N)OC4=CC=C(C=C4)Cl
Method in brief: as §1

[4] = compound: C1=CC2=C(C=CC(=C2)/C=C\3/C(=O)NC(=NCC4=CC=CS4)S3)N=C1
Method in brief: as §1

[5] = compound: C1=CC2=NC=CN=C2C=C1/C=C/3\C(=O)NC(=O)S3
Method in brief: as §1

[6] = compound: C1=CC=C(C=C1)C2=NC(=C(N2)C3=CC=NC=C3)C4=CC(=C(C=C4)Cl)O
Method in brief: as §1

[7] = compound: C1=CC=C2C(=C1)C3=NNC4=CC=CC(=C43)C2=O
Method in brief: as §1

[8] = compound: C1CCN(C1)C(=O)NC2=CC=CC(=C2)NC3=NC=C(C(=N3)NCCC4=CN=CN4)Br
Method in brief: as §1

[9] = compound: C1CN(CCC1(CC2=CC=C(C=C2)Cl)N)C3=NC=NC4=C3C=CN4
Method in brief: as §1

Target	log2 fold change (erlotinib)	log2 fold change [1]	log2 fold change [2]	log2 fold change [3]	log2 fold change [4]	log2 fold change [5]	log2 fold change [6]	log2 fold change [7]	log2 fold change [8]	log2 fold change [9]
ATP2B4 (UniProt P23634)	inactive: 0.056	inactive: 0.011	inactive: -0.131	inactive: 0.011	inactive: -0.061	inactive: 0.013	inactive: -0.014	inactive: -0.003	inactive: -0.002	inactive: 0.119
ATP6V1A (UniProt P38606)	inactive: -0.027	inactive: 0.009	inactive: -0.034	inactive: 0.018	inactive: -0.02	inactive: 0.009	inactive: -0.124	inactive: 0	inactive: -0.033	inactive: -0.035
ASPH (UniProt Q12797)	inactive: -0.021	inactive: 0.004	inactive: -0.176	inactive: 0.036	inactive: -0.069	inactive: 0.044	inactive: -0.056	inactive: 0.004	inactive: -0.017	inactive: -0.072
ASH2L (UniProt Q9UBL3)	inactive: -0.021	inactive: 0.025	inactive: 0.019	inactive: -0.062	inactive: -0.012	inactive: 0.022	inactive: 0.001	inactive: -0.029	inactive: -0.004	inactive: 0.052
ARNT (UniProt P27540)	inactive: 0.065	inactive: -0.089	inactive: -0.131	inactive: -0.012	inactive: 0.009	inactive: -0.048	inactive: -0.048	inactive: -0.019	inactive: -0.01	inactive: -0.064
ARL2 (UniProt P36404)	inactive: 0.01	inactive: 0.008	inactive: 0.039	inactive: -0.01	inactive: 0.072	inactive: 0.008	inactive: 0.03	inactive: 0.037	inactive: -0.027	inactive: -0.012
ARL6IP6 (UniProt Q8N6S5)	inactive: 0.064	inactive: 0.116	inactive: -0.102	inactive: 0.034	inactive: -0.006	inactive: 0.001	inactive: 0.201	inactive: -0.087	inactive: 0.01	inactive: -0.036
ATP9B (UniProt O43861)	active: 0.406	inactive: 0.099	inactive: 0.01	inactive: -0.132	inactive: -0.029	inactive: -0.045	inactive: 0.033	inactive: -0.038	inactive: 0.027	inactive: -0.064
ATPAF1 (UniProt Q5TC12)	inactive: -0.008	inactive: 0.06	inactive: 0.081	inactive: 0.033	inactive: -0.022	inactive: 0.005	inactive: -0.037	inactive: -0.044	inactive: -0.06	inactive: 0.053
ATP6V0A2 (UniProt Q9Y487)	inactive: -0.009	inactive: 0	inactive: -0.045	inactive: 0.031	inactive: -0.025	inactive: 0.031	inactive: 0.024	inactive: 0.041	inactive: -0.016	inactive: 0.002
ASNA1 (UniProt O43681)	inactive: -0.05	inactive: 0.022	inactive: 0.039	inactive: -0.01	inactive: -0.006	inactive: 0.049	inactive: -0.01	inactive: 0.003	inactive: 0.01	inactive: -0.007
ARRB2 isoform 4 (UniProt P32121)	inactive: 0.032	inactive: -0.008	inactive: 0.012	inactive: -0.116	inactive: 0.138	inactive: -0.004	inactive: -0.089	inactive: -0.003	inactive: -0.01	inactive: 0.081
ATP5MC2 isoform 2 (UniProt Q06055)	inactive: 0.035	inactive: -0.113	inactive: -0.021	inactive: 0.022	inactive: 0.017	inactive: 0.048	inactive: 0.059	inactive: 0.031	inactive: 0.008	inactive: 0.056
ATP6V1G1 (UniProt O75348)	inactive: 0.027	inactive: -0.041	inactive: -0.017	inactive: 0.02	inactive: 0.015	inactive: -0.008	inactive: -0.12	inactive: 0.016	inactive: -0.024	inactive: -0.01
ASNS (UniProt P08243)	inactive: 0.006	inactive: 0.004	inactive: 0.053	inactive: -0.015	inactive: 0.012	inactive: -0.011	inactive: 0.034	inactive: -0.008	inactive: 0.002	inactive: 0.02
ARL8A (UniProt Q96BM9)	inactive: 0.048	inactive: -0.019	inactive: 0.043	inactive: -0.009	inactive: 0.05	inactive: 0.003	inactive: -0.11	inactive: 0.032	inactive: 0.145	inactive: -0.029
ATM (UniProt Q13315)	inactive: 0.013	inactive: 0.033	inactive: 0.05	inactive: 0.052	inactive: 0.066	inactive: 0.1	inactive: 0.006	inactive: -0.03	inactive: -0.015	inactive: 0.012
ATP11B (UniProt Q9Y2G3)	inactive: -0.013	inactive: 0	inactive: 0.017	inactive: 0.002	inactive: -0.009	inactive: -0.003	inactive: -0.009	inactive: -0.04	inactive: 0.002	inactive: 0.06
ATP11C (UniProt Q8NB49)	inactive: 0.024	inactive: -0.017	inactive: 0.028	inactive: 0.029	inactive: 0.051	inactive: 0.009	inactive: 0.066	inactive: -0.051	inactive: -0.046	inactive: 0.123
ATP1A4 (UniProt Q13733)	inactive: -0.076	inactive: 0.033	inactive: 0.183	inactive: 0.046	inactive: -0.051	inactive: 0.063	inactive: -0.003	inactive: -0.112	inactive: -0.009	inactive: -0.015
ARRB1 (UniProt P49407)	inactive: 0.017	inactive: 0.139	inactive: 0	inactive: 0	inactive: -0.045	inactive: -0.007	inactive: -0.067	inactive: 0.029	inactive: -0.011	inactive: 0.055
ATP1A1 (UniProt P05023)	inactive: 0.003	inactive: 0.02	inactive: 0.017	inactive: -0.012	inactive: -0.036	inactive: 0.012	inactive: -0.017	inactive: -0.032	inactive: -0.015	inactive: 0.057
ATP6V1H (UniProt Q9UI12)	inactive: -0.055	inactive: 0.015	inactive: 0.034	inactive: 0.035	inactive: -0.008	inactive: 0.045	inactive: -0.131	inactive: 0.024	inactive: -0.051	inactive: -0.097
ATP5F1E (UniProt P56381)	inactive: -0.01	inactive: -0.073	inactive: 0.056	inactive: 0.009	inactive: -0.053	inactive: 0.014	inactive: -0.009	inactive: -0.012	inactive: 0.035	inactive: 0.007
ARPC1A (UniProt Q92747)	inactive: -0.027	inactive: 0.02	inactive: -0.015	inactive: -0.018	inactive: 0.006	inactive: 0.049	inactive: 0.019	inactive: -0.008	inactive: -0.013	inactive: -0.005
ATP6V0D1 (UniProt P61421)	inactive: -0.059	inactive: -0.004	inactive: -0.063	inactive: 0.099	inactive: 0.134	inactive: 0.051	inactive: -0.058	inactive: 0.2	inactive: -0.083	inactive: -0.205
ATP13A3 (UniProt Q9H7F0)	inactive: 0.043	inactive: -0.046	inactive: 0.05	inactive: 0.018	inactive: 0.016	inactive: 0.038	inactive: -0.006	inactive: -0.028	inactive: 0.017	inactive: 0.049
ATG3 (UniProt Q9NT62)	inactive: 0.012	inactive: 0.025	inactive: 0.003	inactive: -0.007	inactive: 0.011	inactive: 0.013	inactive: 0.005	inactive: -0.016	inactive: 0.033	inactive: 0.01
ASF1B (UniProt Q9NVP2)	inactive: -0.124	inactive: 0.127	inactive: -0.055	inactive: 0.009	inactive: 0.236	inactive: 0.009	inactive: -0.022	inactive: -0.089	inactive: -0.053	inactive: 0.036
ATP7A isoform 3 (UniProt Q04656)	inactive: 0.052	inactive: -0.022	inactive: -0.03	inactive: 0.037	inactive: 0.019	inactive: 0.026	inactive: 0.016	inactive: -0.021	inactive: 0.004	inactive: -0.004

An excerpt of these results, bar-delimited.
Target | log2 fold change (erlotinib) | log2 fold change [1] | log2 fold change [2] | log2 fold change [3] | log2 fold change [4] | log2 fold change [5] | log2 fold change [6] | log2 fold change [7] | log2 fold change [8] | log2 fold change [9]
ATP1A4 (UniProt Q13733) | inactive: -0.076 | inactive: 0.033 | inactive: 0.183 | inactive: 0.046 | inactive: -0.051 | inactive: 0.063 | inactive: -0.003 | inactive: -0.112 | inactive: -0.009 | inactive: -0.015
ARRB1 (UniProt P49407) | inactive: 0.017 | inactive: 0.139 | inactive: 0 | inactive: 0 | inactive: -0.045 | inactive: -0.007 | inactive: -0.067 | inactive: 0.029 | inactive: -0.011 | inactive: 0.055
ATP1A1 (UniProt P05023) | inactive: 0.003 | inactive: 0.02 | inactive: 0.017 | inactive: -0.012 | inactive: -0.036 | inactive: 0.012 | inactive: -0.017 | inactive: -0.032 | inactive: -0.015 | inactive: 0.057
ATP6V1H (UniProt Q9UI12) | inactive: -0.055 | inactive: 0.015 | inactive: 0.034 | inactive: 0.035 | inactive: -0.008 | inactive: 0.045 | inactive: -0.131 | inactive: 0.024 | inactive: -0.051 | inactive: -0.097
ATP5F1E (UniProt P56381) | inactive: -0.01 | inactive: -0.073 | inactive: 0.056 | inactive: 0.009 | inactive: -0.053 | inactive: 0.014 | inactive: -0.009 | inactive: -0.012 | inactive: 0.035 | inactive: 0.007
ARPC1A (UniProt Q92747) | inactive: -0.027 | inactive: 0.02 | inactive: -0.015 | inactive: -0.018 | inactive: 0.006 | inactive: 0.049 | inactive: 0.019 | inactive: -0.008 | inactive: -0.013 | inactive: -0.005

Reference: the supplement of paper PMC10849652
